Source: US20230070339A1 (UNIVERSITY OF SOUTHAMPTON, published 2023)
No constants are given. Whether binding was seen depends on the method and setting. Some results given as binding are weak or reduced against the parent protein; the word gives no strength.

Chains of the proteins cited; added tags and fusions are not shown. Residues count along the entry.
UniProt O75022, residues 24-631: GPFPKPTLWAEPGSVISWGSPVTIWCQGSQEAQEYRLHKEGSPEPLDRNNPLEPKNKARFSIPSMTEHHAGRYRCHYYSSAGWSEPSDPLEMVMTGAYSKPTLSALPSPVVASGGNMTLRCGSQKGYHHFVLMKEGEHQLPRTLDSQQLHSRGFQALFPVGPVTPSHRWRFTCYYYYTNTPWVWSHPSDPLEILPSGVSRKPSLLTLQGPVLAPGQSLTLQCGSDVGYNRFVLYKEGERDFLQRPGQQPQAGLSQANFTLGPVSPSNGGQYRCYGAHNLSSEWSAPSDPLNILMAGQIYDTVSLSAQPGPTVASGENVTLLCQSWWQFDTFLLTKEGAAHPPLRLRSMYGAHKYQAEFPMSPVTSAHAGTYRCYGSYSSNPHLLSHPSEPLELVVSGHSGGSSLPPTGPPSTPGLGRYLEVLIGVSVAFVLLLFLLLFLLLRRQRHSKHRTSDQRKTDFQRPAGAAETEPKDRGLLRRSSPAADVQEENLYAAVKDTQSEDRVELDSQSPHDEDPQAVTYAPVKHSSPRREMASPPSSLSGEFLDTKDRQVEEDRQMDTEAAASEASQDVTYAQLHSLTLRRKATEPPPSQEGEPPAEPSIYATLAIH

Key:
[1] = target: human LILRB3 (ILT5/LIR3/CD85a) on cells (human) (UniProt O75022); assay: flow cytometry on human monocyte-derived macrophages (A16 by the legend of FIG. 4A)
[2] = target: WT LILRB3 (all four extracellular domains) on transfected HEK293F cells (human) (UniProt O75022); assay: domain mapping by flow cytometry on transfected HEK293F cells (told in the discussion)

Binder | binding [1] | binding [2]
LILRB3 mAb clone A16 (antibody, human IgG1, V domains shown, Fully human IgG1, full-length IgG; only variable domains tied to the clone; APC-labelled for staining of primary cells; deglycosylated in the T cell assay) VH: EVQLLESGGGLVQPGGSLRLSCAASGFTFSSYWMSWVRQAPGKGLEWVSRINTHGTNIDYADSVKGRFTISRDNSKNTLYLQMNSLRAEDTAVYYCVGVAGTGWFDPWGQGTLVTVSS VL: QSVLTQPPSASGTPGQRVTISCTGSSSNIGAGYDVHWYQQLPGTAPKLLIYGNNNRPSGVPDRFSGSKSGTSASLAISGLRSEDEADYYCQSYDTSLSGSVFGGGTKLTVLG | binds | 
LILRB3 mAb clone A28 (antibody, human IgG1, V domains shown) VH: EVQLLESGGGLVQPGGSLRLSCAASGFTFSSYSMNWVRQAPGKGLEWVANIKQDGTENYYVDSVEGRFTISRDNSKNTLYLQMNSLRAEDTAVYYCARDGDWGWGFDYWGQGTLVTVSS VL: QSVLTQPPSASGTPGQRVTISCTGSSSNIGAGYDVHWYQQLPGTAPKLLIYENNKRPSGVPDRFSGSKSGTSVSLAISGLRSEDEADYYCAAWDDSLSGWVFGGGTKLTVLG |  | binds
